Measured values as given in PMC10808074, “Regulation of micro- and small-exon retention and other splicing processes by GRP20 for flower development”.
Negatives hold for the conditions tested. At least one verdict was read from the data and is not stated in words by the source. Tags and fusion partners may be left off the protein sequences shown.

Biological target: T1, GRP20 (RBDm) M102A,W103A,Y105A,K106A,K107A (Arabidopsis thaliana) (UniProt Q7DV38)
T1 sequence (looked up): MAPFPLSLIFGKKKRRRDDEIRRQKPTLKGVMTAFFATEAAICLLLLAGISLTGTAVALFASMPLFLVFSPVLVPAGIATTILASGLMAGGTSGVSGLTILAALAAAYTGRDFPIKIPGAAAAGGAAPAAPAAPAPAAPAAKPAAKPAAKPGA
Test: EMSA
Settings: negative protein control; Probes: 400 fmol RNA, 17 ug protein, 1x binding buffer (Molecular Probes E33075 kit), room temp 30 min, 5% native PAGE, SYBR Green; pre-mRNA: 500 ng RNA in 10 mM HEPES; recombinant protein; residues 1-153; protein details: N-terminal His6-SUMO

## AGGAGAAGGCC [AP1-probe]
  binding result: no binding
